Values of other authors, collected in article PMC8470770, “Characterization of a Primate Blood-Brain Barrier Co-Culture Model Prepared from Primary Brain Endothelial Cells, Pericytes and Astrocytes” (Pharmaceutics, 2021).

Set-up: method as in PMID 22906709
Details: cited from earlier work

CC(C)NCC(O)COc1ccc(CC(N)=O)cc1 (stereo not shown) [Atenolol]
Mouse In Vivo Papp: 0.23 ×10⁻⁶ cm/s
